Assay results taken from PubChem BioAssay AID2417 (National Center for Advancing Translational Sciences (NCATS), 2010).
Hit rate of the full screen: of about 140,000 compounds, about 4,300 (3.1%) were called active. Inconclusive results, whose numbers are uncertain, are shown with a selection of clear calls.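 The calls were made as follows: active = readout at or below -70, meaning at least 70% loss of cells showing the perinucleolar compartment, a nuclear body marking cancer cells; inconclusive = readout between -30 and a set limit; inactive = the rest.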

Test: High Content Assay for Compounds that inhibit the Assembly of the Perinucleolar Compartment;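 also: plate controls were DMSO wells for no effect and camptothecin positive control wells for full effect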
Details: PC3M PTB-GFP, PNC prevalence imaging, 16 h; at 10 µM; active compounds read low
In short: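 Compounds are pinned in duplicate onto adhered PC3M cells stably expressing GFP-tagged PTB and incubated 16 h at 37 C. Cells are then fixed, nuclei stained with Hoechst, and PNC-positive cells counted.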

Row | Structure (SMILES) | activity change (PNC), negative = inhibition
1 | O=C(c1ccc(Cn2cc(Br)cn2)o1)n1cccn1 | active: -83.2%
2 | CS(=O)(=O)N(CC(=O)Nc1ccc(S(=O)(=O)N2CCCC2)cc1)c1ccccc1F | inconclusive: -34.6%
3 | C(=C\c1ccccc1)/CN1CCN(Cc2ccc3c(c2)OCCO3)CC1 | inconclusive: -35.3%
4 | CCCCC1(CCCC)NC(=S)N(Nc2ccc(C)cc2)C1=O | active: -90%
5 | CCC(CC)NC(=O)Cc1ccccc1[N+](=O)[O-] | inconclusive: -40.2%
6 | O=C(COC(=O)CCC1CCCC1)Nc1ccc(Cl)cc1F | inconclusive: -30.7%
7 | CCOC(=O)N1CCN(C(=O)Cn2nc(-c3ccc(Cl)cc3)ccc2=O)CC1 | inconclusive: -62.5%
8 | O=C(COC(=O)[C@@H]1CCCN1C(=O)c1cccs1)NCCc1ccccc1 | inconclusive: -32.2%
9 | CC/C(=N/NC(=O)c1ccc(Br)o1)c1ccc(Cl)cc1 | inconclusive: -56.9%
10 | CC(=O)C1=C(C)NC(SCC(=O)c2ccccc2)=C(C#N)C1c1ccco1 (configuration not stated) | inactive: 10.8%
11 | COCCNC(=O)CN(C(=O)Cn1nnc2ccccc21)c1ccc(C)c(F)c1 | active: -119%
12 | COc1cccc(-c2cc(C(=O)N3CCCCCC3)no2)c1 | active: -108%
13 | CC(C)SC1=NC(C)(C)C=C(/C=C/c2c(Cl)cccc2Cl)N1 | inconclusive: -57.2%
14 | CCCCC(CCC(=O)O)(C(=O)OCC)c1csc(N)n1 (configuration not stated) | inconclusive: -40.2%
15 | COC(=O)c1cccc(NC(=O)CCc2cc(OC)c(OC)c(OC)c2)c1 | inconclusive: -64.3%
16 | Cc1cnc(-c2nnc(N(C)C(=O)c3ccccn3)s2)cn1 | inconclusive: -55.7%
17 | CCC(=O)Nc1ccc(C(=O)N/N=C/c2cc(Br)c(OC)cc2OC)cc1 | inconclusive: -47.8%
18 | COc1ccc(NC(=O)COC(=O)c2cc(SC)ccc2Cl)c(OC)c1 | inconclusive: -69.4%
19 | Cc1ccc(OCC(=O)N2CCN(S(=O)(=O)c3ccc(Cl)cc3)CC2)c([N+](=O)[O-])n1 | inconclusive: -33.2%

3 structures from above, arranged by molar mass, low to high.
Row | Structure (SMILES) | activity change (PNC), negative = inhibition
15 | COC(=O)c1cccc(NC(=O)CCc2cc(OC)c(OC)c(OC)c2)c1 | inconclusive: -64.3%
18 | COc1ccc(NC(=O)COC(=O)c2cc(SC)ccc2Cl)c(OC)c1 | inconclusive: -69.4%
17 | CCC(=O)Nc1ccc(C(=O)N/N=C/c2cc(Br)c(OC)cc2OC)cc1 | inconclusive: -47.8%

(further entries)

Row | Structure (SMILES) | activity change (PNC), negative = inhibition
20 | CSC1CCCCC1(O)CSc1nc2c(cc1C#N)CCCC2 (configuration not stated) | inconclusive: -35.6%
21 | O=C(NCC1CCCCC1)C12CN(Cc3ccccc3)CC1C(c1cccc([N+](=O)[O-])c1)=NO2 (configuration not stated) | inactive: -20%
22 | COc1ccc(CN(CC(=O)NCc2ccco2)C(=O)CCC(=O)Nc2nccs2)cc1 | inconclusive: -34.9%
23 | CCCCn1c(CN2CCN(C(=O)OCC)CC2)nc2c1c(=O)n(C)c(=O)n2C | inconclusive: -45%
24 | Cc1ccc(NC(=O)c2ccc(CSc3nnc(C)s3)cc2)cc1 | active: -100%
25 | CN(C)CCNC(=O)c1cc(Br)ccc1Cl | inactive: 1.16%
26 | CCOc1ccc(NC(=O)c2ccc3c(c2)N(Cc2ccc(F)cc2)C(=O)CS3=O)cc1 (configuration not stated) | inconclusive: -39%
27 | CC1(C)CC(=O)c2sc(NC(=O)c3cccs3)nc2C1 | inactive: -10.1%
28 | COC(=O)c1cc(C(=O)OC)cc(N2C(=O)CC(N3CCN(c4ccccc4)CC3)C2=O)c1 (configuration not stated) | active: -94.7%
29 | Cn1c(C(=O)NCCCN2CCN(c3cccc(Cl)c3)CC2)cc2c(=O)n(C)c3ccccc3c21 | inconclusive: -32.9%
30 | COc1nc(NCCO)nc(Nc2ccc([N+](=O)[O-])cc2)n1 | inactive: 22.1%
31 | CCOc1ccc(C(=O)Nc2nccs2)cc1[N+](=O)[O-] | inactive: 8%
32 | C#CCSc1nccc(-c2nn(-c3ccc(C)cc3)ccc2=O)n1 | inconclusive: -57.3%
33 | CCCC(CCC)=NNC(=O)CN(Cc1ccccc1)S(=O)(=O)c1ccccc1 | inactive: 0%
34 | CCCCOP(=O)(c1ccc(N(C)C)cc1)C(O)c1ccccc1F (configuration not stated) | inactive: -11.8%
35 | CCCN(C#N)c1nc(NCC)nc(NC(C)C)n1 | inactive: -2.74%
36 | COc1ccccc1/C=C(/C(=O)OCC(=O)N(C)Cc1ccccc1)c1ccccc1 | inactive: 12.4%
37 | CCc1ccccc1NC(=O)CN(C)C(=O)CSc1nc2cc(Cl)ccc2s1 | inconclusive: -51.8%
38 | CCOC(=O)C1CCCN(c2c(NCCCN(C)Cc3ccccc3)c(=O)c2=O)C1 (configuration not stated) | inconclusive: -41.9%

Row | Structure (SMILES) | activity change (PNC), negative = inhibition
39 | CCOC(=O)c1c(NC(=S)NC)sc2c1CC(C)(C)SC2 | inconclusive: -31.3%
40 | C=CCOC(=O)C1=C(C)Nc2ncnn2C1c1cccs1 (configuration not stated) | inconclusive: -75%
41 | CCOC(=O)c1sc2nc(N3CCOCC3)c3c(c2c1N)CCCC3 | inconclusive: -38%
42 | CC1=C(C(=O)Nc2ccccc2C)C(c2cccnc2)n2nc(CCCO)nc2N1 (configuration not stated) | inconclusive: -53.5%
43 | CN1CC=C2C(C#N)=C(N)C(C#N)(C#N)[C@H](c3cccs3)[C@H]2C1 | active: -94.1%
44 | CC(=O)c1sc(NC(=O)c2ccc(Cn3cc(Br)cn3)o2)nc1C | inactive: 15.1%
45 | CSc1nc(N2CCOCC2)c2ccccc2n1 | inconclusive: -47.2%
46 | Cc1ccc(CSCCNC(=O)CSCc2ccc([N+](=O)[O-])cc2)cc1 | inconclusive: -52.9%
47 | CCCN(CCC)C(=O)CCSCCC(=O)N(CCC)CCC | inconclusive: -31.2%
48 | CC1=CCC[C@@H]2[C@@](C)(CC/C(C)=C/C(=O)O)[C@H](C)CC[C@@]12C | inactive: 19.5%
49 | CC(=O)c1c(C)[nH]c(C(=O)OC2CCCCC2=O)c1C (configuration not stated) | inconclusive: -40.6%
50 | COc1ccc(C(=O)CSc2nnc(COc3ccc(C#N)cc3)n2-c2ccccc2)cc1 | inconclusive: -36.7%
51 | CCOc1cc(C)c(Cl)cc1S(=O)(=O)NCc1ccc2c(c1)OCO2 | active: -113%
52 | CN(C)CCN(C(=O)/C=C/c1cccs1)c1nc2ccc(F)cc2s1 | inconclusive: -36.9%
53 | Cc1onc(-c2ccccc2)c1C(=O)NNC(=S)NC(=O)c1ccc(Br)cc1 | inconclusive: -37%
54 | CC(=O)Nc1ccc(NC(=O)CN(C)CCC#N)cc1 | inconclusive: -42.1%
55 | C/C(=N\NC(=O)c1ccc(CSc2nc(C)cc(C)n2)cc1)C1CCCCC1 | inactive: 28.4%
56 | C=C(C)c1cccc(C(C)(C)NC(=O)NCCCN2CCCC2=O)c1 | inconclusive: -30.5%
57 | CCOc1cc(OCC)cc(C(=O)Nc2cccc(C(C)=O)c2)c1 | inactive: -2.05%
